# Laboratory results reported in PubChem BioAssay AID2685 (National Center for Advancing Translational Sciences (NCATS), 2010).
# The list shows a part of the results. The main result of the screen is listed elsewhere. These columns were measured beside it and carry no call. Compounds called inactive in the main read-out are mostly missing here. The note in brackets gives the kind of curve behind each potency; many fits are weak.
# Assay: qHTS Assay for Lipid Storage Modulators in Drosophila S3 Cells;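 as to cell number change: cells counted by Cell Tracker Red CMTPX staining in the red channel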
# Conditions: BODIPY lipid droplet fluorescence, 18-24 h; for cell number change: measured here: cell count max response, cells fed with added oleic acid
# In short: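 Laser-scanning cytometry quantifies lipid droplet accumulation (500–530 nm total intensity; droplet/cell object ratio) in oleic acid-fed (400 uM added) Drosophila S3 cells treated with a concentration series. 20 uM Triacsin C defined 100% inhibition.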
# [1] = measured here: lipid fluorescence (Fed channel) AC50, cells fed with added oleic acid
# [2] = measured here: cell number channel AC50, cells fed with added oleic acid
SMILES,cell number change [%],AC50 [1],AC50 [2]
CCOC(=O)c1cnc2ccc(OC)cc2c1Nc1ccc(N2CCN(C)CC2)cc1,-19,"8.2 µM [falling, partial curve]",
COc1ccc(N(CC(=O)NC2CCCC2)C(=O)Cn2nnc(-c3ccc(OC)c(OC)c3)n2)c(OC)c1,-14.3,,
Cc1sc(-c2ccccn2)nc1OC(=O)c1ccc(F)cc1F,-14.1,,
Cc1ccc(SCC(=O)n2nc(C)cc2C)cc1,102,"6.51 µM [falling, single point]","18.4 µM [rising, single point]"
CC(C)C1N=C(c2ccc3c(c2)OCO3)CC(c2ccccc2O)N1 (stereo not drawn),-14.8,"0.731 µM [rising, full curve]",
CCOC(=O)C1=C(C)NC(C)=C(C(=O)OCC)C1/C=C/c1ccccc1,25.7,,
COc1ccc(Nc2nc(-c3ccc(OC)cc3)c(CCC(=O)O)s2)cc1,24,"0.92 µM [falling, single point]",
CCOCCCNCC(=O)NC1(C)C2CCC(C2)C1(C)C (stereo not drawn),,"29.1 µM [falling, single point]",
Cc1cc(NC(=O)CCC(=O)N(c2ccc(F)cc2)C(C(=O)NC2CCCC2)c2ccccc2)no1 (stereo not drawn),7.39,"29.1 µM [rising, single point]",
CC(NC(=O)C1CCN(S(=O)(=O)c2cccc3cccnc23)CC1)c1ccccc1 (stereo not drawn),,"29.1 µM [falling, single point]",
Cn1c(=O)oc2cc(S(=O)(=O)N3CCCC3)ccc21,-70.4,"1.64 µM [falling, full curve]",
O=C(O)CNC(=S)N(Cc1ccccc1)Cc1cccs1,-11.6,"1.84 µM [falling, partial curve]",
O=S(=O)(c1ccccc1)N1CCN(C(=S)Nc2ccc(Br)cc2)CC1,-8.67,"29.1 µM [falling, single point]",
COc1ccccc1N1CCN(C(=O)Cn2nnc(-c3ccncc3)n2)CC1,11.8,"5.8 µM [rising, partial curve]",
O=C(Nc1ccc(S(=O)(=O)N2CCCCC2c2cccnc2)cc1)c1c(F)cccc1F (stereo not drawn),26,,
O=C(N[C@@H](Cc1c[nH]c2ccccc12)C(=O)O)C1CCN(S(=O)(=O)c2ccc(Cl)cc2)CC1,-12.4,"0.00461 µM [falling, full curve, poor fit]",

SMILES,cell number change [%],AC50 [1],AC50 [2]
O=C(Cc1cccc2ccccc12)Nc1ccc(OC(F)F)c(Cl)c1,4.15,"3.26 µM [rising, partial curve, poor fit]",
FC(F)(F)c1cnc(Oc2cccc3ccccc23)c(Cl)c1,20,"29.1 µM [rising, single point]",
COCCNS(=O)(=O)c1ccc2c(c1)n(C)c(=O)n2C,12.5,"0.291 µM [falling, full curve, poor fit]",
COCCN(C(=O)CCC(=O)Nc1nccs1)C(C(=O)NCCC(C)C)c1ccc(OC)cc1 (stereo not drawn),6.76,"6.51 µM [falling, single point]",
CCOc1ccc(C(CC(=O)O)NC(=O)C23CC4CC(CC(C4)C2)C3)cc1OC (stereo not drawn),11.2,"1.16 µM [rising, partial curve, poor fit]",
O=S(=O)(c1ccc(OCC(O)CN2CCC(Cc3ccccc3)CC2)cc1)N1CCOCC1 (stereo not drawn),-73.4,"14.6 µM [falling, partial curve]","10.3 µM [falling, partial curve]"
Cc1nc2ccccn2c1C(=O)NNC(=S)Nc1ccc(Cl)cc1,-42,"1.64 µM [rising, partial curve, poor fit]","29.1 µM [falling, single point]"
Cc1ccc(-c2cc(=O)[nH][nH]2)c(C)c1,-5.1,,
CCn1c(SCC(=O)Nc2ccccc2-c2ccccc2)nnc1-c1ccoc1C,-1.43,"5.17 µM [falling, single point]",
CCCOC(=O)Cc1c(O)c2ccccc2[nH]c1=O,31.2,,"0.164 µM [rising, full curve, poor fit]"
O=C1Nc2ccc(Br)cc2C1=C1CCCCC1,-31,"29.1 µM [falling, single point]","29.1 µM [falling, single point]"
O=C(c1ccccc1)c1ccc2nc[nH]c2c1,52.6,"0.58 µM [falling, single point]","18.4 µM [rising, single point]"
CCn1ccnc1C(O)c1cccc(OC)c1 (stereo not drawn),-0.768,"0.184 µM [falling, full curve]",
CCOC(=O)CCc1c(C)nc(SCCCn2c(=O)[nH]c3ccccc32)c(C#N)c1C,,,"0.103 µM [rising, full curve, poor fit]"
COc1ccc(/C=C/C(=O)NCC2COc3ccccc3O2)c(OC)c1 (stereo not drawn),,,"0.231 µM [rising, full curve, poor fit]"

# Some of the entries so far, bar-delimited.
SMILES | cell number change [%] | AC50 [1] | AC50 [2]
Cc1nc2ccccn2c1C(=O)NNC(=S)Nc1ccc(Cl)cc1 | -42 | 1.64 µM [rising, partial curve, poor fit] | 29.1 µM [falling, single point]
Cc1ccc(-c2cc(=O)[nH][nH]2)c(C)c1 | -5.1 |  | 
CCn1c(SCC(=O)Nc2ccccc2-c2ccccc2)nnc1-c1ccoc1C | -1.43 | 5.17 µM [falling, single point] | 
CCCOC(=O)Cc1c(O)c2ccccc2[nH]c1=O | 31.2 |  | 0.164 µM [rising, full curve, poor fit]
O=C1Nc2ccc(Br)cc2C1=C1CCCCC1 | -31 | 29.1 µM [falling, single point] | 29.1 µM [falling, single point]
O=C(c1ccccc1)c1ccc2nc[nH]c2c1 | 52.6 | 0.58 µM [falling, single point] | 18.4 µM [rising, single point]
